From publication PMC8686293
Results are given in words; binding and its absence hold for the method and conditions named. In cells and extracts the contact can be indirect. Some binding calls cover weakened binding; strength is not graded here.

Chains of the proteins cited; added tags and fusions are not shown.
UniProt Q8R4B8: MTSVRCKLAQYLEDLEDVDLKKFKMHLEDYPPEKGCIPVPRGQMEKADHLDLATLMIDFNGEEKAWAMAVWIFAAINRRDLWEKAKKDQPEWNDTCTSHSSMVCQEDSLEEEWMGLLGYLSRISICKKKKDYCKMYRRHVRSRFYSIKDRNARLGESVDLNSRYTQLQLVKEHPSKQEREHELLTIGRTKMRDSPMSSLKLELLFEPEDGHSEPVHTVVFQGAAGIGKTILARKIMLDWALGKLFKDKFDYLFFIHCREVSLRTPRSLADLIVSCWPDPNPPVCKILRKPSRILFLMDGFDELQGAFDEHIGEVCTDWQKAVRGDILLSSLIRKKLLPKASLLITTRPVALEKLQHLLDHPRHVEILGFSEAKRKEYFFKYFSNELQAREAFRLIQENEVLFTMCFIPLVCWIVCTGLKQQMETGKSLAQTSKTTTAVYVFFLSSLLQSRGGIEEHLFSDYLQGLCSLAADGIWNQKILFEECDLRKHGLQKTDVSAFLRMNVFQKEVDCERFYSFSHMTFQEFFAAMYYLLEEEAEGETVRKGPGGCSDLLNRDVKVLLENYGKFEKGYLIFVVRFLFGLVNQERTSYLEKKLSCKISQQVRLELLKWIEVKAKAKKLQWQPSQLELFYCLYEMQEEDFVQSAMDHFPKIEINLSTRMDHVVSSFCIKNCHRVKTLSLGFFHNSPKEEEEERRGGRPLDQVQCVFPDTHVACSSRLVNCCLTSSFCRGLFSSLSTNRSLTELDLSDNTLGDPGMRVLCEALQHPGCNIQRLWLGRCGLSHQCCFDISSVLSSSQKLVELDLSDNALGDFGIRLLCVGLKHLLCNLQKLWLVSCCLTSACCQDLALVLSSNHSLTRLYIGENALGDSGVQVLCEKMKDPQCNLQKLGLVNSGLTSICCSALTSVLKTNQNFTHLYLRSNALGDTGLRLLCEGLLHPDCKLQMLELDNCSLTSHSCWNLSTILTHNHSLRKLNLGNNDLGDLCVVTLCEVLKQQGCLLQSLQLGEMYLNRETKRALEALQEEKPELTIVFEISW

Key:
[1] = target: NLRP3 (mouse (endogenous in mouse brain and BV2 cells)) (UniProt Q8R4B8); experiment: co-IP; mouse brain lysates, IP with anti-NLRP3 or anti-LAMP2A antibody, agarose beads, washed with RIPA buffer, immunoblot
[2] = target: NLRP3 (mouse (endogenous in mouse brain and BV2 cells)) (UniProt Q8R4B8); experiment: co-IP; BV2 cell lysates, IP with anti-NLRP3, with or without the p38 inhibitor SB203580, immunoblot

B1: LAMP2A (receptor, UniProt P17047-1 26-415)
chain: LIVNLTDSKGTCLYAEWEMNFTITYETTNQTNKTITIAVPDKATHDGSSCGDDRNSAKIMIQFGFAVSWAVNFTKEASHYSIHDIVLSYNTSDSTVFPGAVAKGVHTVKNPENFKVPLDVIFKCNSVLTYNLTPVVQKYWGIHLQAFVQNGTVSKNEQVCEEDQTPTTVAPIIHTTAPSTTTTLTPTSTPTPTPTPTPTVGNYSIRNGNTTCLLATMGLQLNITEEKVPFIFNINPATTNFTGSCQPQSAQLRLNNSQIKYLDFIFAVKNEKRFYLKEVNVYMYLANGSAFNISNKNLSFWDAPLGSSYMCNKEQVLSVSRAFQINTFNLKVQPFNVTKGQYSTAQDCSADEDNFLVPIAVGAALGGVLILVLLAYFIGLKRHHTGYEQF
For B1, the binding [1] was “binds” and the binding [2] was “binds”.
